Experimental data reported in PubChem BioAssay AID504834 (National Center for Advancing Translational Sciences (NCATS), 2011).
About 22,000 (6.9%) of roughly 320,000 compounds were called active. The shares of active, inactive and inconclusive entries below differ from those in the screen. Calls come from the whole dose curve; as a rule, active = well fitted inhibition curve with a large enough effect; inconclusive = small, poorly fitted or top-dose-only effect, or another doubt; inactive = no such curve, though single readings can be large or run the other way. Potencies beside an inconclusive call are fits to weak or partial responses and may not hold up.
% is set by controls: 0 for no effect and ±100 for the full control effect; potency is the fitted concentration of half-maximal effect.

Assay: Primary qHTS for delayed death inhibitors of the malarial parasite plastid, 96 hour incubation
Details: P. falciparum luciferase reporter growth; series mostly up to 28.7 µM
Procedure, shortened: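 Compounds incubated with erythrocytes infected by luciferase-expressing P. falciparum (2% hematocrit, 0.05% parasitemia final) for 96 hours, 37 C in 5% CO2. Growth inhibition scored as decreased luciferase luminescence.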
For COc1cc(OC)cc(C(=O)NC2CC3CCC(C2)N3Cc2ccco2)c1 (centres undefined), the Potency was inconclusive: 18.5 µM [inhibitor, single point]. In the case of CCOC(=O)C(C)n1cnc2scc(-c3ccc(C)cc3)c2c1=O (centres undefined), the Potency is reported as inconclusive: 18.5 µM [inhibitor, single point]. For COc1cc(/C=C/C(=O)OCC(=O)Nc2c(C)n(C)n(-c3ccccc3)c2=O)cc(OC)c1OC, the Potency was active: 10.4 µM. For COc1ccc(OC)c(NC(=O)C(CCSC)NS(=O)(=O)c2cccs2)c1 (centres undefined), the Potency was “inactive”. In the case of CC(=O)c1ccc(S(=O)(=O)N2CCN(S(=O)(=O)c3ccccc3C(F)(F)F)CC2)cc1, the Potency is reported as inconclusive: 14.7 µM [inhibitor, partial curve, poor fit]. With Cc1ccc(S(=O)(=O)N2CCC3(CC2)OCCN3S(=O)(=O)c2c(C)cc(C)cc2C)cc1 the Potency was inconclusive: 14.7 µM [inhibitor, partial curve, poor fit]. With Cc1onc(C(=O)N2CCN(c3ccccc3F)CC2)c1-c1ccccc1Cl the Potency was inconclusive: 0.233 µM [inhibitor, full curve, poor fit]. In the case of CCOC(=O)c1c(S(=O)(=O)NCC(=O)NCc2ccc(C)cc2)c(C)n(C)c1C, the Potency is reported as inconclusive: 0.415 µM [inhibitor, full curve, poor fit]. For O=S(=O)(c1cc(-c2nnc(-c3ccc(Br)cc3)o2)ccc1Br)N1CCCCCC1, the Potency was inconclusive: 18.5 µM [inhibitor, single point]. With COc1ccc(CN2CCN(C(=O)c3cccc4ccccc34)CC2)cc1OC the Potency was inconclusive: 18.5 µM [inhibitor, single point]. For COc1cccc(Nc2nc(-c3sc(NC(=O)c4ccco4)nc3C)cs2)c1, the Potency was active: 13.1 µM. For O=C(Cc1csc(N2CCOCC2)n1)N/N=C/c1ccc(Cl)cc1Cl, the Potency was inconclusive: 4.15 µM [inhibitor, partial curve, poor fit]. In the case of COc1ccc(Cl)cc1N(C(=O)c1ccco1)C(C(=O)NC1CCCC1)c1ccncc1 (centres undefined), the Potency is reported as inconclusive: 11.7 µM [inhibitor, single point]. For Cc1cc(NC(=O)c2cccc(S(=O)(=O)N3CCCCCC3)c2)no1, the Potency was active: 8.28 µM. For Cc1ccc(Nc2ccc(NCc3ccccc3)nn2)cc1C, the Potency was inconclusive: 18.5 µM [inhibitor, single point]. In the case of OC1(CNCc2ccccc2)C2CC3CC(C2)CC1C3 (centres undefined), the Potency is reported as inconclusive: 3.7 µM [inhibitor, partial curve, poor fit]. With CCN(CC)CCN(C(=O)c1c(F)cccc1F)c1nc2cc(C)cc(C)c2s1 the Potency was inconclusive: 18.5 µM [inhibitor, partial curve, poor fit]. With COc1cc2c(cc1NC(=O)CN1CCN(S(=O)(=O)c3ccccc3F)CC1)oc1ccccc12 the Potency was inconclusive: 18.5 µM [inhibitor, single point]. With O=C(CN1CCN(C(=O)CNC(=O)c2ccc3c(c2)OCO3)CC1)Nc1ccc(F)cc1 the Potency was inconclusive: 9.28 µM [inhibitor, single point]. With CCn1nc(C)c(C(=O)Nc2cc(Oc3cc(C)cc(C)c3)cc([N+](=O)[O-])c2)c1C the Potency was active: 11.7 µM. In the case of Cc1cc(C)cc(-n2ncc3c2CCCC3NC(=O)CCN2Cc3ccccc3C2=O)c1 (centres undefined), the Potency is reported as “inactive”. With CN1C[C@@H](NS(=O)(=O)N(C)C)C[C@@H]2c3cccc4c3c(cn4C)C[C@H]21 the Potency was active: 13.5 µM. For COc1nc(NCc2cccnc2)nc(OC)n1, the Potency was inconclusive: 0.928 µM [inhibitor, full curve]. In the case of COc1ccc(-c2nn(-c3ccccc3)cc2C(=O)N(C)C)cc1, the Potency is reported as inconclusive: 0.0928 µM [inhibitor, full curve, poor fit]. For O=C(CSc1nnnn1-c1cccc2c1CCCC2)N1CCCCC1, the Potency was inconclusive: 18.5 µM [inhibitor, single point]. With CC1CCCC2(C1)NC(=S)N(c1ccccc1)N2 (centres undefined) the Potency was “inactive”. In the case of COC(=O)CC(NS(=O)(=O)c1cccs1)c1ccc2c(c1)OCO2 (centres undefined), the Potency is reported as “inactive”. In the case of C/C(Cn1nnc([N+](=O)[O-])n1)=N\NC(=O)c1ccccc1O, the Potency is reported as inconclusive: 13.1 µM [inhibitor, single point]. With COC(=O)c1cc2sccc2n1CC(=O)N1CCCc2ccccc21 the Potency was inconclusive: 14.7 µM [inhibitor, single point]. In the case of Cc1ccc(NC(=O)C2CCN(S(=O)(=O)c3ccc(N4CCCC4=O)cc3)CC2)cc1Cl, the Potency is reported as active: 5.86 µM. With CNc1cc(CSC)nc(SCc2ccc(Cl)c(Cl)c2)n1 the Potency was inconclusive: 4.15 µM [inhibitor, single point]. With CC(C)C(NS(=O)(=O)c1cccc2nsnc12)C(=O)NCc1ccc2c(c1)OCO2 (centres undefined) the Potency was inconclusive: 16.5 µM [inhibitor, single point]. For N#Cc1c(NC(=O)C2CC2)sc2c1CCCCC2, the Potency was “inactive”. With O=C(Nc1ccc(Cl)cn1)c1cccc2c(Br)cccc12 the Potency was inconclusive: 10.4 µM [inhibitor, single point]. For O=C(Nc1ccc(N2CCOCC2)c(Cl)c1)c1ccc(-n2cnnc2)cc1, the Potency was inconclusive: 5.86 µM [inhibitor, partial curve]. In the case of O=C(CC(=O)NC1CCCCC1)N/N=C/c1ccccc1F, the Potency is reported as “inactive”. With Cc1ccc(C(C(=O)NC2CCCCC2)N(CCCN2CCOCC2)C(=O)c2snc(C(N)=O)c2N)cc1 (centres undefined) the Potency was inconclusive: 11.7 µM [inhibitor, single point]. For CC(C)C1=CC(=Nc2ccc(S(N)(=O)=O)cc2)C=C(C(C)C)C1=O, the Potency was inconclusive: 5.22 µM [inhibitor, partial curve]. For Cc1cc(C)nc(NC(=O)CSc2nccc(C)n2)n1, the Potency was inconclusive: 6.57 µM [inhibitor, partial curve, poor fit]. In the case of COC(=O)C1=NN(c2cccc(C)c2)C2C(=O)N(c3ccccc3OC)C(=O)C12 (centres undefined), the Potency is reported as “inactive”. For COc1cc2nc(N3CCN(C(=O)[C@H]4COc5ccccc5O4)CC3)nc(N)c2cc1OC, the Potency was active: 3.7 µM. With Cc1ccc(C(=O)c2ccccc2C(=O)OCC(=O)N2CC(C)CC(C)C2)cc1 (centres undefined) the Potency was active: 7.38 µM. With Cc1ccc(CCCOC(=O)C[N+]2(C)CCCC2)cc1 the Potency was inconclusive: 0.828 µM [inhibitor, full curve, poor fit]. In the case of N=C1SCC(=O)N1c1ccccc1Cl, the Potency is reported as “inactive”. With Cc1cc(NC(=O)CCCN2C(=O)c3cccc4cccc(c34)C2=O)no1 the Potency was inconclusive: 0.294 µM [inhibitor, partial curve, poor fit]. In the case of O=C(N/N=C/c1ccc[nH]1)c1cc(-c2cccs2)nc2ccccc12, the Potency is reported as inconclusive: 1.31 µM [inhibitor, partial curve]. With COc1ccc(NC(=O)Cn2nnc(C(N)=O)c2N)c(OC)c1 the Potency was inconclusive: 18.5 µM [inhibitor, single point]. For COc1ccc(-c2c(C)oc3c(CN4CCN(C)CC4)c(O)ccc3c2=O)cc1, the Potency was inconclusive: 16.5 µM [inhibitor, single point]. In the case of COc1ccc(CN2CC(C(=O)NCc3ccc4c(c3)OCO4)CC2=O)cc1 (centres undefined), the Potency is reported as inconclusive: 20.8 µM [inhibitor, partial curve, poor fit]. For CC12CCC(c3c(CO)nn(-c4ccccc4)c31)C2(C)C (centres undefined), the Potency was active: 10.4 µM. In the case of Cc1ccc(C2C3=C(CCCC3=O)N=C3c4ccccc4C(=O)C32)cc1 (centres undefined), the Potency is reported as inconclusive: 18.5 µM [inhibitor, single point]. In the case of CCN(CCn1cccn1)C(=O)c1cc(COc2cccc3cccnc23)on1, the Potency is reported as inconclusive: 11.7 µM [inhibitor, single point]. In the case of C=C(NC(=O)C(=C)NC(=O)c1csc(C2=N[C@@H]3c4csc(n4)[C@@H]4NC(=O)c5csc(n5)[C@@H]([C@](C)(O)[C@H](C)O)NC(=O)[C@@H]5CSC(=N5)/C(=C/C)NC(=O)[C@@H]([C@H](C)O)NC(=O)c5csc(n5)[C@]3(CC2)NC(=O)[C@@H](C)NC(=O)C(=C)NC(=O)[C@@H](C)NC(=O)[C@@H]([C@@H](C)CC)N[C@H]2C=Cc3c([C@H](C)O)cc(nc3[C@@H]2O)C(=O)O[C@H]4C)n1)C(N)=O, the Potency is reported as active: 4.05 µM. For CCOc1cccc(NC(=O)C2CCCN(S(=O)(=O)c3ccc(OC)cc3)C2)c1 (centres undefined), the Potency was “inactive”. For COc1ccc(S(=O)(=O)N2CCCC(C(=O)Nc3ccc(NC(=O)c4ccccn4)cc3)C2)cc1 (centres undefined), the Potency was “inactive”. In the case of O=C(NCc1ccc(F)cc1)C1CCN(S(=O)(=O)N2CCC3(CC2)OCCO3)CC1, the Potency is reported as “inactive”. With c1ccc(-c2c3ccccc3nc3[nH]c4ccccc4c23)cc1 the Potency was inconclusive: 18.5 µM [inhibitor, single point]. For COC(=O)C1=C(c2ccc(F)cc2F)C[C@@H]2CC[C@H]1N2C(=O)N1CCC(C)CC1, the Potency was inconclusive: 10.4 µM [inhibitor, single point]. In the case of O=C(c1ccc(OCc2cn3ccccc3n2)cc1)N1CCN(S(=O)(=O)c2ccccc2F)CC1, the Potency is reported as inconclusive: 4.65 µM [inhibitor, partial curve]. In the case of O=C(NN1C(=O)C2C3C=CC(C4CC34)C2C1=O)c1ccccc1Cl (centres undefined), the Potency is reported as inconclusive: 10.4 µM [inhibitor, single point]. With CN(C)N1C(N)=C(C#N)C(c2cccc(Cl)c2)C2=C1CCCC2=O (centres undefined) the Potency was inconclusive: 18.5 µM [inhibitor, single point]. In the case of COc1cccc(CNc2nc3ccccc3n2CCN2CCCCC2)c1OC, the Potency is reported as “inactive”. With CCOc1ccc(S(=O)(=O)N(CC(=O)NN=C2CCN(C)CC2)c2ccc(C)cc2)cc1 the Potency was “inactive”. With Cc1cccc(C)c1-n1c(C)nn(CC#N)c1=O the activity change, negative = inhibition was inactive: -34.4% [at 5.75 µM].
